According to patent publication US8383130B2 (Senju Pharmaceutical Co., Ltd., priority 2008, dated 2013):
End groups of sequences in plain letters are not given here.

Assay: general procedure: Fmoc solid-phase peptide synthesis; HBTU
Conditions: whole synthesis, HPLC A/A %

VQGTAKVTSSRQELNPLKSIVEKSILLTEQALAKA (listed as Homo sapiens)
final HPLC purity: 96.207%

EISGPAEPASPPETTTTAQETSAAAVQGTAKVT (listed as Homo sapiens)
final HPLC purity: 99.53%

QGTAKVTSSRQELNPL (listed as Homo sapiens)
final HPLC purity: 98.01%

EISGPAEPASPPETTTTAQETSAAAVQGTAKVTSSRQELNPLKSIVEKSILLTEQALAKA (listed as Homo sapiens)
final HPLC purity: 87.47%

QGTAKVTSSRQELNPLKSIVEKSILLTEQALAKAGKGMHGGVPGG (listed as Homo sapiens)
final HPLC purity: 96.88%

QGTAKVTSSRQELNPLKSIVEKSILLTEQALAKAGKGMHGGVPGGKQFIENGSEF (listed as Homo sapiens)
final HPLC purity: 95.15%

QGTAKVTSSRQELNPLKSIVEKSILLTEQALAKA (listed as Homo sapiens)
final HPLC purity: 99.26%
